Results taken from ChEMBL document CHEMBL5346880, “ATP-competitive inhibitors of human DNA topoisomerase IIα with improved antiproliferative activity based on N-phenylpyrrolamide scaffold” (Eur J Med Chem, 2023).
pIC50: −log10 of the molar value.

Tests used:
[1] = test system: MCF7; experiment: cells; conditions: Homo sapiens, MCF7, 72 h
[2] = test system: HepG2; experiment: cells; conditions: Homo sapiens, HepG2, 72 h

pIC50 [1]: < 4.30
pIC50 [2]: < 4.30
SMILES: Cc1[nH]c(C(=O)Nc2ccc(C(N)=O)cc2OC(C)C)c(Cl)c1Cl
